In publication PMC9637093:
Results are given in words; binding and its absence hold for the method and conditions named. In cells and extracts the contact can be indirect.

The chains behind the UniProt entries cited, without tags or fusion partners.
UniProt O00425: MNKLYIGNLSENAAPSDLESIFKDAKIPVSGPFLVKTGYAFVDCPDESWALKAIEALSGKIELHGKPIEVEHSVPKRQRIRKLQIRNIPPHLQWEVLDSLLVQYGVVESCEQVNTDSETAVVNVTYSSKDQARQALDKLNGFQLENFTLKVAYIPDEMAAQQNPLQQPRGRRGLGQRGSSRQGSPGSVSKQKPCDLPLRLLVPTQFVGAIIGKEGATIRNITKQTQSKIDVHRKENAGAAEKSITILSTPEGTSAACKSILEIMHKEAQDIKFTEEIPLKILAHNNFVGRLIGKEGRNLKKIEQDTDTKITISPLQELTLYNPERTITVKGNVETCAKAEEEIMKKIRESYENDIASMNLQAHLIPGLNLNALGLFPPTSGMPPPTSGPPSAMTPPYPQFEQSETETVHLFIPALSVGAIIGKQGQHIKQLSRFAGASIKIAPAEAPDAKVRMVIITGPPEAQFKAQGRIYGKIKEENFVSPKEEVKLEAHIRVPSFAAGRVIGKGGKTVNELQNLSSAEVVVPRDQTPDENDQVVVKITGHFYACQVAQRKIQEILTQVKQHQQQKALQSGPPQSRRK

Molecular target: IGF2BP3 (not stated (human or mouse cDNA cloned)) (UniProt O00425)
Assay: co-IP; two-step IP: lysate of 293 T cells transfected with a FLAG-tagged RNA binding factor, biotin-conjugated RNA oligonucleotides added; FLAG-M2 beads 2 h at 4 °C, elution with 3xFLAG peptide, then streptavidin beads 1 h at 4 °C; washes in buffer D; western blotting

binding: no binding
B1: KHDRBS3 (protein, UniProt O75525 1-346)
chain: MEEKYLPELMAEKDSLDPSFTHALRLVNQEIEKFQKGEGKDEEKYIDVVINKNMKLGQKVLIPVKQFPKFNFVGKLLGPRGNSLKRLQEETLTKMSILGKGSMRDKAKEEELRKSGEAKYFHLNDDLHVLIEVFAPPAEAYARMGHALEEIKKFLIPDYNDEIRQAQLQELTYLNGGSENADVPVVRGKPTLRTRGVPAPAITRGRGGVTARPVGVVVPRGTPTPRGVLSTRGPVSRGRGLLTPRARGVPPTGYRPPPPPPTQETYGEYDYDDGYGTAYDEQSYDSYDNSYSTPAQSGADYYDYGHGLSEETYDSYGQEEWTNSRHKAPSARTAKGVYRDQPYGRY
